Common to all, as to test: pull-down; FLAG-Stx11 from lysates of transfected HEK-293T cells loaded on protein G-beads with anti-FLAG mAb (2 h, 4°C), washed, then incubated with lysates of HA-Munc18-2 transfected HEK-293T cells for 4 h at 4°C; lysis buffer 20 mM Tris pH 7.4, 2 mM EDTA, 1% Triton-X-100, 10% glycerol, 100 mM NaCl; Western blot; only the target purified
The target in assay [1] is T1, FLAG-tagged syntaxin-11 wild-type (human) (UniProt O75558).
T1 sequence: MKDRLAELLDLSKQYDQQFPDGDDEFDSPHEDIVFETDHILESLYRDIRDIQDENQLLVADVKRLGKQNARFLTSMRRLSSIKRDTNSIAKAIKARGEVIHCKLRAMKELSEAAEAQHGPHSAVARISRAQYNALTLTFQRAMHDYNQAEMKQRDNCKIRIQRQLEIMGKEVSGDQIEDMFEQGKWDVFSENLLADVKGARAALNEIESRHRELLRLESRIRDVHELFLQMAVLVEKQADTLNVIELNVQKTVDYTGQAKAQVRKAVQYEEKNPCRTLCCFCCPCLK

For assay [2], the target named is T2, FLAG-tagged syntaxin-11 R4A (human) (UniProt O75558).
T2 sequence: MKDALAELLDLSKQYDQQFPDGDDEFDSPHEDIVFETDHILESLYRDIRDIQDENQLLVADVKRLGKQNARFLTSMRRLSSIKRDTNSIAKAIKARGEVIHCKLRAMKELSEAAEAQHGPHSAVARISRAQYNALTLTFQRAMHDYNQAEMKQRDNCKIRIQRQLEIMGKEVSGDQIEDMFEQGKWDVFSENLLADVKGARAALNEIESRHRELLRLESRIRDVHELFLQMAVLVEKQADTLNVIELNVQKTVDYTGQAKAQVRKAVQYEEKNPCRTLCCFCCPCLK

The target in assay [3] is T3, FLAG-tagged syntaxin-11 L58P (human) (UniProt O75558).
T3 sequence: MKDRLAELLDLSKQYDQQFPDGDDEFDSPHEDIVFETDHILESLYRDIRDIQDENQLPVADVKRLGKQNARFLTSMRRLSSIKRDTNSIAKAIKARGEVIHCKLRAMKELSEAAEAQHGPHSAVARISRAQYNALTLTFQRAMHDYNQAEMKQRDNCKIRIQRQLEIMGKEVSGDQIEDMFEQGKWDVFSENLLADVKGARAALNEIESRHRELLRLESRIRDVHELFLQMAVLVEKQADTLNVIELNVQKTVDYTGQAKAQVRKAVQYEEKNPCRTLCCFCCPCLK

In assay [4] the target is T4, FLAG-tagged syntaxin-11 Q268X (human) (UniProt O75558).
T4 sequence: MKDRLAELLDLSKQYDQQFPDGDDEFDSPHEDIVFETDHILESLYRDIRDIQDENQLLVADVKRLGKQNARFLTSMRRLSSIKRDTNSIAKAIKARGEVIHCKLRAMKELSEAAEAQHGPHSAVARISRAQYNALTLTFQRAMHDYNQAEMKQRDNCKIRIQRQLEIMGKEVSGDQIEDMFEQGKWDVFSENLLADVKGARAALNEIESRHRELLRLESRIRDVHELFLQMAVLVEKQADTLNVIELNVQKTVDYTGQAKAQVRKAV

These are yes or no findings as the source states them, for the method shown. Binding seen in cells or lysates may run through a third protein. Some binding calls cover weakened binding; strength is not graded here. Tags and fused reporters may be left off the sequences shown.

B1: HA-tagged Munc18-2 wild-type (protein, UniProt Q15833 1-593)
chain: MAPSGLKAVVGEKILSGVIRSVKKDGEWKVLIMDHPSMRILSSCCKMSDILAEGITIVEDINKRREPIPSLEAIYLLSPTEKSVQALIKDFQGTPTFTYKAAHIFFTDTCPEPLFSELGRSRLAKVVKTLKEIHLAFLPYEAQVFSLDAPHSTYNLYCPFRAEERTRQLEVLAQQIATLCATLQEYPAIRYRKGPEDTAQLAHAVLAKLNAFKADTPSLGEGPEKTRSQLLIMDRAADPVSPLLHELTFQAMAYDLLDIEQDTYRYETTGLSEAREKAVLLDEDDDLWVELRHMHIADVSKKVTELLRTFCESKRLTTDKANIKDLSQILKKMPQYQKELNKYSTHLHLADDCMKHFKGSVEKLCSVEQDLAMGSDAEGEKIKDSMKLIVPVLLDAAVPAYDKIRVLLLYILLRNGVSEENLAKLIQHANVQAHSSLIRNLEQLGGTVTNPGGSGTSSRLEPRERMEPTYQLSRWTPVIKDVMEDAVEDRLDRNLWPFVSDPAPTASSQAAVSARFGHWHKNKAGIEARAGPRLIVYVMGGVAMSEMRAAYEVTRATEGKWEVLIGSSHILTPTRFLDDLKALDKKLEDIALP
Turning to B1, the binding entry in assay [1] is listed as “binds”; in assay [2], “no binding”; in assay [3] it was “no binding”; in assay [4] it was “binds”.

The values are drawn from paper PMC3890652.
